{"source": "patent US5776899A", "about": "“Polypeptide and anti-HIV agent prepared therefrom” (Seikagaku Corporation, priority 1993, dated 1998)", "system": "human immunodeficiency virus (HIV)", "test": "Antiviral activity against HIV in HIV-infected MT-4 cells (MTT method)", "type": "cell-based", "details": "Table 5; method of Example 2, HIV-infected MT-4 cells", "procedure": "HIV-infected MT-4 cells (2.5×10^4 cells/well, multiplicity of infection (MOI): 0.001) immediately after infection were added together with the test substance with various changes of the concentration to a 96-well microtitre plate. After incubation at 37° C. for 5 days in a CO2 incubator, the number of survivor cells was measured by the MTT method [Pauwels et al.; J. Virol. […] On the other hand, in order to know the cytotoxicity of the test substance on the MT-4 cells, virus-non-infected cells were incubated, likewise as above, together with the test compound with various changes of the concentration. […] Further, the rough ratio of CC50 to EC50, (CC50 /EC50) is expressed as an effective ratio (SI).", "note": "At least one peptide structure holds a part that was inferred or is arguable (an end, a ring closure or a residue). Positions of bridges follow the written chain, without caps; N, C: chain ends. Non-standard residues stand in square brackets, D forms with d. Residues, ends and D or L forms follow the SMILES beside them. *: point of attachment. FITC = O=C1OC2(c3ccc(O)cc3Oc3cc(O)ccc32)c2ccc(NC(=S)*)cc21; dOrn = NCCC[C@@H](N)C(=O)O"}
{"smiles": "N=C(N)NCCC[C@H](NC(=O)[C@@H]1CSSC[C@H](NC(=O)[C@H](Cc2c[nH]c3ccccc23)NC(=O)[C@H](CCCNC(=N)N)NC(=O)[C@@H](N)CCCNC(=N)N)C(=O)N[C@@H](Cc2ccc(O)cc2)C(=O)N[C@@H](CCCNC(=N)N)C(=O)N[C@@H](CCCCN)C(=O)N[C@H](CCCN)C(=O)N2CCC[C@H]2C(=O)N[C@@H](Cc2ccc(O)cc2)C(=O)N[C@@H](CCCNC(=N)N)C(=O)N[C@@H](CCCCN)C(=O)N1)C(N)=O", "note": "[Polypeptide (6), Arg--Arg --Trp--Cys--Tyr--Arg--Lys --DOrn--Pro --Tyr--Arg--Lys--Cys--Arg--NH2] (H-RRWCYRK[dOrn]PYRKCR-NH2; disulfide 4-13)", "values": [{"measurement": "EC50", "result": 0.021, "unit": "µg/mL"}]}
{"smiles": "N=C(N)NCCC[C@H](NC(=O)[C@@H]1CSSC[C@H](NC(=O)[C@H](Cc2c[nH]c3ccccc23)NC(=O)[C@H](CCCNC(=N)N)NC(=O)[C@H](CCCNC(=N)N)NC(=S)Nc2ccc3c(c2)C(=O)OC32c3ccc(O)cc3Oc3cc(O)ccc32)C(=O)N[C@@H](Cc2ccc(O)cc2)C(=O)N[C@@H](CCCNC(=N)N)C(=O)N[C@@H](CCCCN)C(=O)N[C@H](CCCCN)C(=O)N2CCC[C@H]2C(=O)N[C@@H](Cc2ccc(O)cc2)C(=O)N[C@@H](CCCNC(=N)N)C(=O)N[C@@H](CCCCN)C(=O)N1)C(N)=O", "note": "[Polypeptide (19), FTC--Arg--Arg --Trp--Cys--Tyr--Arg--Lys --DLys--Pro --Tyr--Arg--Lys--Cys--Arg--NH2] ({FITC}-RRWCYRK[dK]PYRKCR-NH2; disulfide 4-13)", "values": [{"measurement": "EC50", "result": 0.001, "unit": "µg/mL"}]}
